Our source for the binding values is publication PMC7212589.

By UniProt entry, the sequences of proteins in these tests, tags left out. Residues count along the entry.
UniProt P37173, residues 23-567: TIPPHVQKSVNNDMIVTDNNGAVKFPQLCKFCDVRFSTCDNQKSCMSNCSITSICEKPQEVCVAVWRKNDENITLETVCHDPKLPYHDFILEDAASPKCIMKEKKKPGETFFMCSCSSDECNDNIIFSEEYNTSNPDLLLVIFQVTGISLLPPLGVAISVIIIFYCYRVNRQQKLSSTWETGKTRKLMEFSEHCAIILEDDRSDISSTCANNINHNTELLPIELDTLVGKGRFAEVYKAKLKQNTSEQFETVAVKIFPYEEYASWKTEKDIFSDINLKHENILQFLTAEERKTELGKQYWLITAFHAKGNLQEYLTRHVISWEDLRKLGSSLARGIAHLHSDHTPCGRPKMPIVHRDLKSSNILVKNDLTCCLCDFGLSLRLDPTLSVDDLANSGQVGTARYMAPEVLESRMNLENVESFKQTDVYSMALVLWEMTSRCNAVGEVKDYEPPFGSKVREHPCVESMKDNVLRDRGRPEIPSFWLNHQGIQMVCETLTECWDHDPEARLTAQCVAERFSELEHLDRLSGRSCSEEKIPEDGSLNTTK

Read-outs that look alike come from different tables or passages of the source. Results are given in words; binding and its absence hold for the method and conditions named. In cells and extracts the contact can be indirect. Some entries that bind do so weakly or less than the wild type.

Test [1] addresses T1, Ecotropic viral integration site 5 (EVI5) (human (endogenous in A549)) (UniProt O60447).
T1 sequence: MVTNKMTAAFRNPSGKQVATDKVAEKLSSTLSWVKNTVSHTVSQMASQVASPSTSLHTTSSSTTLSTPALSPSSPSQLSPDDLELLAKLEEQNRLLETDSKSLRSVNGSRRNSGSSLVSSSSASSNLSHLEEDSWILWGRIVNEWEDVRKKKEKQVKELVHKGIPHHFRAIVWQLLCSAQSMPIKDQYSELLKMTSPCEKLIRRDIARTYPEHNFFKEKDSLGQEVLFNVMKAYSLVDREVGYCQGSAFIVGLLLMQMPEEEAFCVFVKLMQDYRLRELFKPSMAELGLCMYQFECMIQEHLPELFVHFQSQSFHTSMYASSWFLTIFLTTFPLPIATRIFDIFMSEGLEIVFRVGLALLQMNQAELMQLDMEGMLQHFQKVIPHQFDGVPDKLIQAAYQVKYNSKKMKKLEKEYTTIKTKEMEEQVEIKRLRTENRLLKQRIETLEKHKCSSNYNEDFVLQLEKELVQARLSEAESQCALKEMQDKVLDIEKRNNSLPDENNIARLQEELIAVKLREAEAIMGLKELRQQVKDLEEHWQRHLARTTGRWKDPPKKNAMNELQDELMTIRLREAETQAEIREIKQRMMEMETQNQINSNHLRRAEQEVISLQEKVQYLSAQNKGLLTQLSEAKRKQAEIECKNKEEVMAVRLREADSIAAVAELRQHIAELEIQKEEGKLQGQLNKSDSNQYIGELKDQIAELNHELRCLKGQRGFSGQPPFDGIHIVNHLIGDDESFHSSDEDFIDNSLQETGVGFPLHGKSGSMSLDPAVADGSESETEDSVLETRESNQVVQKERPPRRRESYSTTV
Put plainly: co-IP; lysates (modified RIPA buffer with protease and phosphatase inhibitors) of control, EVI5-overexpressing or EVI5-KO A549 cells; pre-cleared with protein G beads; 1 μg rabbit anti-EVI5 antibody (Abcam ab70790) overnight in a cold room, then protein G beads 3-4 h; washed three times with RIPA buffer; western blot. For orientation: Immunoblotting shows a protein as a band on a membrane.

For test [2], the target named is T1, Ecotropic viral integration site 5 (EVI5) (human (endogenous in A549)). The test is described as above. The source holds these as a separate data set.

With “TGF-β receptor II (from UniProt P37173 23-567)”, the binding result in test [1] is listed as “binds”.

B1: TGF-β receptor I (receptor, UniProt P36897 34-503)
chain: LQCFCHLCTKDNFTCVTDGLCFVSVTETTDKVIHNSMCIAEIDLIPRDRPFVCAPSSKTGSVTTTYCCNQDHCNKIELPTTVKSSPGLGPVELAAVIAGPVCFVCISLMLMVYICHNRTVIHHRVPNEEDPSLDRPFISEGTTLKDLIYDMTTSGSGSGLPLLVQRTIARTIVLQESIGKGRFGEVWRGKWRGEEVAVKIFSSREERSWFREAEIYQTVMLRHENILGFIAADNKDNGTWTQLWLVSDYHEHGSLFDYLNRYTVTVEGMIKLALSTASGLAHLHMEIVGTQGKPAIAHRDLKSKNILVKKNGTCCIADLGLAVRHDSATDTIDIAPNHRVGTKRYMAPEVLDDSINMKHFESFKRADIYAMGLVFWEIARRCSIGGIHEDYQLPYYDLVPSDPSVEEMRKVVCEQKLRPNIPNRWQSCEALRVMAKIMRECWYANGAARLTALRIKKTLSQLSQQEGIKM
Turning to B1, the binding entry in test [2] was “binds”.

B2: Emi1 (protein, UniProt Q9UKT4 1-447)
chain: MSRRPCSCALRPPRCSCSASPSAVTAAGRPRPSDSCKEESSTLSVKMKCDFNCNHVHSGLKLVKPDDIGRLVSYTPAYLEGSCKDCIKDYERLSCIGSPIVSPRIVQLETESKRLHNKENQHVQQTLNSTNEIEALETSRLYEDSGYSSFSLQSGLSEHEEGSLLEENFGDSLQSCLLQIQSPDQYPNKNLLPVLHFEKVVCSTLKKNAKRNPKVDREMLKEIIARGNFRLQNIIGRKMGLECVDILSELFRRGLRHVLATILAQLSDMDLINVSKVSTTWKKILEDDKGAFQLYSKAIQRVTENNNKFSPHASTREYVMFRTPLASVQKSAAQTSLKKDAQTKLSNQGDQKGSTYSRHNEFSEVAKTLKKNESLKACIRCNSPAKYDCYLQRATCKREGCGFDYCTKCLCNYHTTKDCSDGKLLKASCKIGPLPGTKKSKKNLRRL
As for B2, the binding entry in test [2] is on record as “binds”.
